Measured values as given in PubChem BioAssay AID540276 (National Center for Advancing Translational Sciences (NCATS), 2011).
The whole screen tested about 300,000 compounds, of which about 5,400 (1.8%) were called active. The shares of active, inactive and inconclusive entries below differ from those in the screen. Calls come from the whole dose curve; tested in HEK293 cells. Potencies of inconclusive entries are doubtful fits and often do not repeat.

assay: qHTS for inhibitors of binding or entry into cells for Marburg Virus; conditions: Marburg virus pseudotyped entry inhibition, cell reporter; activity change, negative = inhibition: at 37.8 µM (top of the series) unless noted
% is set by controls: 0 for no effect and ±100 for the full control effect; potency is the fitted concentration of half-maximal effect.

Structure (SMILES) | activity change, negative = inhibition | Potency
COc1ccc(-n2c(=O)c3c4c(sc3n3c(=S)[nH]nc23)COC(C(C)C)C4)cc1 (stereo unspecified) | inactive: 10.5% [at 46.1 µM] | 
Cc1cc(C)nc(N/N=C/c2c[nH]c3ccccc23)n1 | inactive: -17.5% [at 46.1 µM] | 
CCCC(NC(=O)C(C)N1CCN(S(=O)(=O)c2ccccc2)CC1)c1ccccc1 (stereo unspecified) |  | inconclusive: 22.4 µM [inhibitor, single point]
CC(C)(C)c1cc(C(C)(C)C)n(-c2ccccc2)n1 |  | inconclusive: 8.91 µM [activator, partial curve, poor fit]
CCc1ccccc1NC(=O)c1cc2c(Cl)nc3ccccc3c2s1 | inactive: 0.821% [at 46.1 µM] | 
CCCCCN(C(=O)NC(=O)Nc1ccccc1C)S(=O)(=O)c1ccccc1 |  | inconclusive: 11.2 µM [inhibitor, single point]
CCCCCCCCn1c(=O)c(C(=O)OC)c(N)c2ccccc21 |  | inconclusive: 35.5 µM [inhibitor, single point]
COc1ccccc1N1CCN(C(=O)/C=C/c2ccco2)CC1 |  | inconclusive: 0.112 µM [inhibitor, full curve, poor fit]
CSc1nc2n(n1)C(c1cccs1)C1=C(CCCC1=O)N2 (stereo unspecified) | inactive: -14.5% [at 46.1 µM] | 
CC(=O)C1=C(C)Nc2ncnn2C1c1ccc(Cl)cc1Cl (stereo unspecified) |  | inconclusive: 3.98 µM [inhibitor, partial curve, poor fit]
CC(O)(Cc1ccccn1)Cc1ccccn1 | inactive: 2.83% [at 46.1 µM] | 
CCCOc1ccc(-c2nc[nH]c2[N+](=O)[O-])cc1 | inactive: -11.9% [at 46.1 µM] | 
O=[N+]([O-])c1cccc(-c2nc3ccc([N+](=O)[O-])cc3[nH]2)c1 |  | inconclusive: 32.6 µM [inhibitor, single point]
Cc1cc(C)nc(SCc2ccc(Cl)cc2)n1 | inactive: 1.86% | 
CC(=O)Nc1cc2c(c([N+](=O)[O-])c1C)C(C)(C)CC2(C)C |  | inconclusive: 7.94 µM [inhibitor, partial curve, poor fit]
O=C(CCC(=O)c1cccs1)NNC(=O)c1cc(Cl)ccc1Cl | inactive: -1.77% [at 46.1 µM] | 
Cc1cc(C(=O)N/N=C/c2ccc(C)o2)c2ccccc2n1 |  | inconclusive: 1.58 µM [inhibitor, partial curve, poor fit]
O=c1[nH]c(CSc2nc3ccccc3[nH]2)nc2c1cnn2-c1ccccc1 |  | inconclusive: 11.2 µM [inhibitor, partial curve, poor fit]
Cn1nc2sc3ccccc3n2c(=O)c1=O |  | inconclusive: 3.55 µM [activator, partial curve, poor fit]
O=C(COC(=O)c1n[nH]c2ccccc12)Nc1ccccc1 |  | inconclusive: 15.8 µM [activator, partial curve, poor fit]
Cc1ccc(NC(=O)N/C=C/c2ccco2)cc1 |  | inconclusive: 3.26 µM [inhibitor, full curve, poor fit]
Cn1nc(-c2ccc(N3CCOCC3)c(NS(=O)(=O)c3ccc(Cl)cc3)c2)c2ccccc2c1=O |  | inconclusive: 35.5 µM [inhibitor, single point]
CN1CCN(c2ccc(NC(=O)COc3ccc(Cl)cc3Cl)cc2)CC1 |  | inconclusive: 29.1 µM [inhibitor, single point]
CCN1CCN(CCCN(Cc2ccco2)C(=S)Nc2ccc(Cl)cc2)CC1 |  | inconclusive: 17.8 µM [inhibitor, single point]

Structure (SMILES) | activity change, negative = inhibition | Potency
Cc1ccc(Cc2ccccc2C(=O)O)cc1 | inactive: 10.3% | 
CCn1nnc(NC(=O)c2ccc(-c3ccc(Cl)cc3)o2)n1 | inactive: 12.6% [at 46.1 µM] | 
C/C(CC(=O)NC1CCCC1)=N\NC(=O)Cc1cccs1 | inactive: 10.9% | 
CCOC(=O)N/N=C\c1cccc(OC)c1 | inactive: 12.8% [at 46.1 µM] | 
O=S(=O)(Nc1cc(F)ccc1F)c1cccc2nonc12 |  | inconclusive: 14.1 µM [inhibitor, single point]
CC1CCCCC1NC(=O)CCn1ccc2cc(S(=O)(=O)N3CCCC3)ccc21 (stereo unspecified) |  | inconclusive: 5.62 µM [activator, single point]
CC(C)NC(C)Cc1ccc(I)cc1 (stereo unspecified) |  | active: 16.4 µM
O=C(Nc1cccc(Br)c1)c1cc(-c2ccc3c(c2)OCCO3)on1 |  | inconclusive: 1.41 µM [activator, partial curve, poor fit]
N#Cc1ccc(-c2ccc(F)cc2)nc1Oc1ccc(Cl)c(Cl)c1 |  | inconclusive: 0.164 µM [inhibitor, full curve, poor fit]
CN(CC(=O)N1CCN(c2ccccn2)CC1)S(=O)(=O)c1ccc2ccccc2c1 |  | inconclusive: 2.59 µM [activator, partial curve]
CCC(C)(C)NC(=O)CN(Cc1ccc(OC)cc1)C(=O)CCC(=O)Nc1nccs1 |  | inconclusive: 35.5 µM [inhibitor, single point]
COc1ccc(N2CCN(CC(=O)Nc3nc(C)cs3)CC2)cc1 | inactive: -19.3% | 
COc1ccc2c(c1)cc1c(=O)n(CC(=O)NCCc3ccccc3)nc(C)n12 | inactive: 6.39% [at 46.1 µM] | 
COC(=O)c1ccc(OCC(=O)Nc2nn(-c3ccccc3)nc2C(N)=O)cc1 |  | inconclusive: 0.651 µM [activator, single point]
COc1cc2nc(NCc3ccccc3)n3nc(-c4ccccc4)nc3c2cc1OC | inactive: 3.22% [at 46.1 µM] | 
COC(=O)c1ccccc1NC(=O)c1ccc2c(Cl)c3c(nc2c1)CCCC3 | inactive: 4.19% [at 46.1 µM] | 
CN1C(=O)[C@]2(c3ccccc31)[C@H]1CCCC=C1C(C#N)=C(N)C2(C#N)C#N | inactive: -5.94% | 
c1ccc(Cc2nnc3sc(C4COc5ccccc5O4)nn23)cc1 (stereo unspecified) | inactive: 3.81% | 
CNC(=O)CO/N=C/c1ccc(N(C)C)cc1 |  | inconclusive: 22.4 µM [activator, partial curve, poor fit]
Cc1ccc(CNC(=O)CN(c2cc(C)cc(C)c2)S(=O)(=O)c2c(C)noc2C)cc1 | inactive: 4.22% [at 46.1 µM] | 
CCN(CC)CC(=O)Nc1sc(C)cc1C(=O)c1ccc(C)cc1 |  | inconclusive: 7.08 µM [inhibitor, full curve]
CC(=O)C1=C(O)C(=O)OC1c1ccc(Cl)cc1 (stereo unspecified) |  | inconclusive: 6.31 µM [activator, single point]
CN(CCc1ccccn1)C(=O)CCC1CCCN(Cc2ccccc2OC(F)F)C1 (stereo unspecified) |  | inconclusive: 0.562 µM [inhibitor, full curve, poor fit]
CC(C)(C)OC(=O)N[C@@H](Cc1ccccc1)c1nnc(S(=O)(=O)Cc2cccc(F)c2)o1 |  | inconclusive: 12.6 µM [inhibitor, single point]

Given in markdown: 2 of the compounds above

| Structure (SMILES) | activity change, negative = inhibition | Potency |
| --- | --- | --- |
| CC1CCCCC1NC(=O)CCn1ccc2cc(S(=O)(=O)N3CCCC3)ccc21 (stereo unspecified) |  | inconclusive: 5.62 µM [activator, single point] |
| CC(C)NC(C)Cc1ccc(I)cc1 (stereo unspecified) |  | active: 16.4 µM |

Continuation.

Structure (SMILES) | activity change, negative = inhibition | Potency
OCC1(Cc2ccc(Cl)cc2)CCN(CC2CC=CCC2)CC1 (stereo unspecified) |  | inconclusive: 10 µM [inhibitor, partial curve, poor fit]
O=c1c2cc(NC(=S)NCCN3CCCCCC3)ccc2nc2n1CCCCC2 |  | inconclusive: 31.6 µM [inhibitor, single point]
COc1cc2[nH]c(=O)n(CCCCCC(=O)N3CCN(c4ccc(Cl)cc4)CC3)c(=O)c2cc1OC | inactive: -9.8% [at 46.1 µM] | 
CC(C)CC(=O)NS(=O)(=O)c1ccc(N)cc1 |  | inconclusive: 11.2 µM [activator, partial curve]
CCCc1nn(C)c(C(=O)Nc2ccc3ccccc3c2)c1Cl |  | inconclusive: 1.78 µM [activator, partial curve]
CCOC(=O)C1=C(C)NC(=O)NC1/C=C/c1ccccc1OC (stereo unspecified) |  | inconclusive: 5.62 µM [activator, single point]
CC1CCCC(C)N1/N=C/c1ccc(N(C)C)cc1 (stereo unspecified) |  | inconclusive: 0.794 µM [inhibitor, partial curve, poor fit]
CN(C)C(=O)Oc1c(Cl)cc(Cl)c2cccnc12 | inactive: 6.14% [at 46.1 µM] | 
CCOC(=O)NN=C1C[C@@H](O)[C@@H](O)[C@@H]2[C@H]3C(=O)N(C4CCCCC4)C(=O)[C@@H]3CC[C@@H]12 | inactive: -24.9% [at 14.2 µM] | 
O=C(NNc1nc(N2CCCC2)nc(N2CCCC2)n1)c1ccccc1 | inactive: -22.7% | 
Fc1cccc(Cl)c1Cc1noc(/C=C/c2ccccc2)n1 | inactive: 25.1% | 
COC(=O)Cn1c(=O)c2c(nc3n2CCCN3CCc2ccccc2)n(C)c1=O | inactive: 5.4% [at 46.1 µM] | 
Cc1ccccc1-c1ocnc1C(=O)Nc1ccccc1NC(=O)c1ccccn1 |  | inconclusive: 22.4 µM [inhibitor, single point]
Cc1ccc(NC(=O)Cn2c(=O)n(CCC(=O)NCc3ccccc3Cl)c(=O)c3ccccc32)c(C)c1 | inactive: -15.7% [at 46.1 µM] | 
O=C(NCCc1ccncc1)Nc1cccc(Cl)c1 | inactive: 2.81% | 
O=C(Cc1c(F)cccc1Cl)Nc1ccc(S(=O)(=O)NCC2CCCO2)cc1 (stereo unspecified) |  | inconclusive: 6.31 µM [activator, single point]
CCOCCCNc1nc2cc(OC)c(OC)cc2c2nc(-c3ccccc3)nn12 |  | inconclusive: 35.5 µM [activator, single point]
Cc1cc(Nc2ccc(C)c(Cl)c2)nc(N2CCOCC2)n1 |  | inconclusive: 1 µM [inhibitor, full curve, poor fit]
COc1ccc(C(=O)COC(=O)[C@H](C)NS(=O)(=O)c2ccc(NC(C)=O)cc2)cc1OC |  | inconclusive: 11.2 µM [inhibitor, partial curve, poor fit]
CCOC(=O)N1CCN(C(=O)CN(C)S(=O)(=O)c2ccc(OC)c(OC)c2)CC1 |  | inconclusive: 31.6 µM [activator, single point]
Cc1nn(Cc2c(F)c(F)c(F)c(F)c2F)c(C)c1NC(=O)c1c(-c2ccccc2)nn(-c2ccccc2)c1C |  | inconclusive: 7.3 µM [inhibitor, full curve, poor fit]
COc1ccc(C2C(C(=O)Nc3ccccc3)=C(C)Nc3nc(-c4ccccc4Cl)nn32)cc1OC (stereo unspecified) |  | inconclusive: 28.2 µM [inhibitor, single point]
CN1CCSc2ccc(C(=O)NCc3ccccc3)cc21 |  | inconclusive: 20 µM [activator, single point]

Structural class, the entries above containing an aryl methoxy group.
Structure (SMILES) | activity change, negative = inhibition | Potency
COc1ccc(-n2c(=O)c3c4c(sc3n3c(=S)[nH]nc23)COC(C(C)C)C4)cc1 (stereo unspecified) | inactive: 10.5% [at 46.1 µM] | 
COc1ccccc1N1CCN(C(=O)/C=C/c2ccco2)CC1 |  | inconclusive: 0.112 µM [inhibitor, full curve, poor fit]
CCOC(=O)N/N=C\c1cccc(OC)c1 | inactive: 12.8% [at 46.1 µM] | 
CCC(C)(C)NC(=O)CN(Cc1ccc(OC)cc1)C(=O)CCC(=O)Nc1nccs1 |  | inconclusive: 35.5 µM [inhibitor, single point]
COc1ccc(N2CCN(CC(=O)Nc3nc(C)cs3)CC2)cc1 | inactive: -19.3% | 
COc1ccc2c(c1)cc1c(=O)n(CC(=O)NCCc3ccccc3)nc(C)n12 | inactive: 6.39% [at 46.1 µM] | 
COc1cc2nc(NCc3ccccc3)n3nc(-c4ccccc4)nc3c2cc1OC | inactive: 3.22% [at 46.1 µM] | 
COc1cc2[nH]c(=O)n(CCCCCC(=O)N3CCN(c4ccc(Cl)cc4)CC3)c(=O)c2cc1OC | inactive: -9.8% [at 46.1 µM] | 
CCOC(=O)C1=C(C)NC(=O)NC1/C=C/c1ccccc1OC (stereo unspecified) |  | inconclusive: 5.62 µM [activator, single point]
CCOCCCNc1nc2cc(OC)c(OC)cc2c2nc(-c3ccccc3)nn12 |  | inconclusive: 35.5 µM [activator, single point]
COc1ccc(C(=O)COC(=O)[C@H](C)NS(=O)(=O)c2ccc(NC(C)=O)cc2)cc1OC |  | inconclusive: 11.2 µM [inhibitor, partial curve, poor fit]
CCOC(=O)N1CCN(C(=O)CN(C)S(=O)(=O)c2ccc(OC)c(OC)c2)CC1 |  | inconclusive: 31.6 µM [activator, single point]
COc1ccc(C2C(C(=O)Nc3ccccc3)=C(C)Nc3nc(-c4ccccc4Cl)nn32)cc1OC (stereo unspecified) |  | inconclusive: 28.2 µM [inhibitor, single point]
